Residue numbers refer to the chain shown, from its start. These are yes or no findings as the source states them, for the method shown. In cells and extracts the contact can be indirect. Some binding calls cover weakened binding; strength is not graded here. Each block holds one binder with its values, some of them ahead of it.
Biological target: Flag-TRF1 (UniProt P54274)
Assay: co-IP; Flag-TRF1 with 2×Strep-PinX1 constructs, HeLa cell lysates

Amino acid sequences for entries named in this document (tags omitted).
UniProt P54274: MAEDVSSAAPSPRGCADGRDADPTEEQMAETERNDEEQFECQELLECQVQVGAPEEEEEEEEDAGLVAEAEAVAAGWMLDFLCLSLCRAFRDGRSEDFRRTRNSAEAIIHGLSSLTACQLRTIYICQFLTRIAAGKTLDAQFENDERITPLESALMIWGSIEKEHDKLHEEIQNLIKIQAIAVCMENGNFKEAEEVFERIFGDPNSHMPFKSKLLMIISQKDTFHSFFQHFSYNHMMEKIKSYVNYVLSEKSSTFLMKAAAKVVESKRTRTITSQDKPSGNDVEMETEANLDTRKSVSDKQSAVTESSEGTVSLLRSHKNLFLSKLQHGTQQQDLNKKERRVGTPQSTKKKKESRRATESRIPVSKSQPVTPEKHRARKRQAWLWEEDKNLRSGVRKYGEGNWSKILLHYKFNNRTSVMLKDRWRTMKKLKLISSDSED

- binding: binds
B1: 2×Strep-PinX1(2-328) (protein, UniProt Q96BK5 2-328)
chain: SMLAERRRKQKWAVDPQNTAWSNDDSKFGQRMLEKMGWSKGKGLGAQEQGATDHIKVQVKNNHLGLGATINNEDNWIAHQDDFNQLLAELNTCHGQETTDSSDKKEKKSFSLEEKSKISKNRVHYMKFTKGKDLSSRSKTDLDCIFGKRQSKKTPEGDASPSTPEENETTTTSAFTIQEYFAKRMAALKNKPQVPVPGSDISETQVERKRGKKRNKEATGKDVESYLQPKAKRHTEGKPERAEAQERVAKKKSAPAEEQLRGPCWDQSSKASAQDAGDHVQPPEGRDFTLKPKKRRGKKKLQKPVEIAEDATLEETLVKKKKKKDSK

- binding: binds
B2: 2×Strep-PinX1(2-328 (MUT292-301)) (protein, UniProt Q96BK5 2-328)
chain: B1 chain with K291A, K293L, K294G, K298V, K299Q, K300S

Source: paper PMC11615109, “PinX1 suppresses cancer progression by inhibiting telomerase activity in cervical squamous cell carcinoma and endocervical adenocarcinoma” (Genes & Diseases, 2024)
